In US11180533 (dated 2021):

Assay: general procedure: Fmoc solid-phase peptide synthesis; Rink amide AM resin; HOBt/DIC

| Substance | final purity (method not given) (purification step, HPLC (fractions), acetate salt) [%] | step yield (purification step, acetate salt) [%] | final HPLC purity (purification step, HPLC (fractions), TFA salt) [%] | step yield (purification step, TFA salt) [%] | crude purity (method not given) (whole synthesis, HPLC (fractions), scale of the general procedure 100 g of Rink Amide AM Resin, TFA salt) [%] | crude mass (whole synthesis, TFA salt) [gms] |
| --- | --- | --- | --- | --- | --- | --- |
| Acetyl-D-3-(2″-naphtyl)-alanine-D-4-chlorophenylalanine-D-3-(3″-pyridyl)alanine-L-serine-L-tyrosine-D-citruline-L-leucine-L-arginine-L-proline-D-alanine-amide acetate salt | 99.6 | 85.0 |  |  |  |  |
| Cetrorelix trifluoroacetate salt |  |  | 98 | 20 | 75 | 80.0 |
